Assay results from patent US20220048993A1.
Results are given in words; binding and its absence hold for the method and conditions named. Some binding calls cover weakened binding; strength is not graded here. Values belong to the binder of their own block, whether it stands above or below them.

Experiments:
[1] = molecular target: T1, soluble human FcRH5 protein fragment (human) (UniProt Q96RD9); assay: BIACORE (FIG. 15)
T1 sequence: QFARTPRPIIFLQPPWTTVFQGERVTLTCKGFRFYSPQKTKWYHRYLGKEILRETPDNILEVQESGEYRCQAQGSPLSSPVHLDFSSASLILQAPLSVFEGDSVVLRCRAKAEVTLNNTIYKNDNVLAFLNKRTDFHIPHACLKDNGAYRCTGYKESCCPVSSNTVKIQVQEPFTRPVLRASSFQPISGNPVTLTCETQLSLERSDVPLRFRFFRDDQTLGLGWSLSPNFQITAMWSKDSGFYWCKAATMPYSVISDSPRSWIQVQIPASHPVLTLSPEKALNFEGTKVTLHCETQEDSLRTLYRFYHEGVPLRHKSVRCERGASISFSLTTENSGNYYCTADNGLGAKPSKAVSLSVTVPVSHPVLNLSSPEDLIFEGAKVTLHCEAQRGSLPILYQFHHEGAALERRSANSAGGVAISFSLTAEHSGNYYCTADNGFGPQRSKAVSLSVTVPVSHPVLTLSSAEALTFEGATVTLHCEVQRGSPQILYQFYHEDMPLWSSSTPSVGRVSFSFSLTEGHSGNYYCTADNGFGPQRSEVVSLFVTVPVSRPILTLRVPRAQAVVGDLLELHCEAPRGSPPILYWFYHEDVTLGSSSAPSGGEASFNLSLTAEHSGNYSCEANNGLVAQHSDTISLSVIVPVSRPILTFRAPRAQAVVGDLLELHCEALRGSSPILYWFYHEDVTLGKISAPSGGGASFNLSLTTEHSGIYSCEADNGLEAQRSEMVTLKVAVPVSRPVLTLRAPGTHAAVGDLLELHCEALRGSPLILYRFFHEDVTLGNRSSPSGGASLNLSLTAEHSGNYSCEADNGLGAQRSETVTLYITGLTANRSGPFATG

[2] = molecular target: T1, soluble human FcRH5 protein fragment (human); assay: BIACORE, TDB stressed with AAPH or light
[3] = molecular target: T1, soluble human FcRH5 protein fragment (human); assay: ELISA

binding [1]: binds
binding [2]: binds
B1: 1G7.v85/38E4.v1 TDB (bispecific antibody, V domains shown)
VH 1: EVQLVESGPGLVKPSETLSLTCTVSGFSLTRFGVHWVRQPPGKGLEWLGVIWRGGSTDYNAAFVSRLTISKDNSKNQVSLKLSSVTAADTAVYYCSNHYYGSSDYALDNWGQGTLVTVSS
VL 1: DIQMTQSPSSLSASVGDRVTITCKASQDVRNLVVWFQQKPGKAPKLLIYSGSYRYSGVPSRFSGSGSGTDFTLTISSLQPEDFATYYCQQHYSPPYTFGQGTKVEIK
VH 2: EVQLVQSGAEVKKPGASVKVSCKASGFTFTSYYIHWVRQAPGQGLEWIGWIYPENDNTKYNEKFKDRVTITADTSTSTAYLELSSLRSEDTAVYYCARDGYSRYYFDYWGQGTLVTVSS
VL 2: DIVMTQSPDSLAVSLGERATINCKSSQSLLNSRTRKNYLAWYQQKPGQSPKLLIYWTSTRKSGVPDRFSGSGSGTDFTLTISSLQAEDVAVYYCKQSFILRTFGQGTKVEIK

binding [3]: binds
B2: F(ab′)2 A (bispecific antibody, V domains shown)
VH 1: B1 VH 1
VL 1: B1 VL 1
VH 2: B1 VH 2
VL 2: B1 VL 2
modifications: hinge Cys crosslinked
